Test results taken from patent US10874740B2, “5-ALA derivatives and use thereof” (UNIVERSITE DE GENEVE, priority 2015, dated 2020).
At least one structure is not confirmed: it was looked up by name or label, or the drawing left a doubt.

System: CAM U87Mg spheroid tumor
Assay: In vivo CAM U87Mg spheroid tumor model, fluorescence imaging
Set-up: species or system chick
Conditions: intravenous; Compound 7 100 μmol/kg, Compound 1 300 μmol/kg, PpIX 100 μmol/kg; imaging 0, 30, 60, 120 min
Description: Compounds of the invention were tested in vivo in using the chorioallantoic membrane (CAM) model U87-Mg tumor spheroids were obtained using a modified procedure (De Magalhaes et al., 2010, 20-26) using 2.5×10^4 cells/mL. Spheroids grew 4 days before inoculation into the CAM. On embryonic development day (EDD) 7, the hole in the eggshell was enlarged to allow access to the CAM vasculature, using a needle (25 Gauge) a hole was drilled in the CAM. A binocular lens Leica M80 (Wetzlar, Germany) was used to perform the inoculation. Once the hole was pierced in the CAM, the spheroid (approximately of 200 μm) was placed in the cavity beneath the hole. Cell medium (20 μL) was placed on the spheroid to allow the tumor to attach to the CAM membrane and develop. Then, the eggs were sealed with parafilm and returned to the incubator to let spheroids grow until EDD13. […] Fluorescence imaging of tumor nodules was done with 12-bit monochrome CDD camera (Retiga EX Q-Imaging Canada) connected to fluorescence Eclipse E600 FN microscope with a CFI achromat objective characterized by magnification 4×, numerical aperture of 0.10 and a working distance of 30 mm (Nikon, Tokyo, Japan). A conical holder was used to place the eggs during experimentation under the objective of fluorescence microscope. […] Data was analysed using multiple t-tests and statistical significance determined at each time point.

C=CC1=C(C)c2cc3[nH]c(cc4nc(cc5[nH]c(cc1n2)c(C)c5CCC(=O)O)C(CCC(=O)O)=C4C)c(C)c3C=C [PpIX, protoporphyrin IX, reference compound]
tumor fluorescence signal / contrast: no preferential accumulation and fluorescence in the tumors
